Where a name gives a salt, the structure may show the parent alone. The list shows a part of the results. Repeats in this data set agree poorly, so a single value says little.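 The cells are human U-2 OS cells that stably carry a GFP sensor with a nuclear import signal and a classical export signal. They were transfected to make PR50, a 50-repeat proline–arginine dipeptide protein from the ALS/FTD gene C9ORF72. Each well's nuclear-minus-cytoplasm GFP signal was scaled from in-plate DMSO (low) to PR-only wells (high), then scored against the other test wells on the plate; compounds scoring well below zero were called hits that reverse the PR effect.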
The molecules below were run on U-2 OS NCT-C biosensor cells expressing PR50 (assay: Z-score of normalised NCT-C biosensor translocation index in PR50-expressing cells; higher = more nuclear biosensor (more disrupted nuclear export)). Settings: 3 µM; 24 h.

SMILES	Z-score
C=C1C[C@@]23CC[C@H]4[C@@](C)(CCC[C@@]4(C)C(=O)O)[C@@H]2CC[C@]1(O)C3 [Steviol]	inactive: -1.03
CC12C=Cc3occc3C1CCC13CC(=O)C(CCC12)C3 (stereo unspecified) [16-Oxokahweol]	inactive: -0.61
O=C1Nc2ccccc2/C1=C1/Nc2ccccc2C1=O [Indirubin]	inactive: -0.363
N=C(N)NC(=O)Cc1c(Cl)cccc1Cl [Guanfacine·HCl]	inactive: -1.67
O=C(O)C(O)Cc1ccc(O)c(O)c1 (stereo unspecified) [Danshensu sodium salt]	inactive: -0.713
CCCCCOc1ccc(-c2cc(-c3ccc(C(=O)N[C@H]4C[C@@H](O)[C@@H](O)NC(=O)[C@@H]5[C@@H](O)[C@@H](C)CN5C(=O)[C@H]([C@H](O)CC(N)=O)NC(=O)[C@H]([C@H](O)[C@@H](O)c5ccc(O)c(OS(=O)(=O)O)c5)NC(=O)[C@@H]5C[C@@H](O)CN5C(=O)[C@H]([C@@H](C)O)NC4=O)cc3)no2)cc1 [Micafungin]	inactive: -0.63
COc1cc2nc(N(C)CCCNC(=O)C3CCCO3)nc(N)c2cc1OC (stereo unspecified) [Alfuzosin hydrochloride]	inactive: 3.62
COc1cc2nc(N(C)CCCNC(=O)C3CCCO3)nc(N)c2cc1OC (stereo unspecified) [Alfuzosin]	inactive: -1.12
Clc1ccc(Cn2c(CN3CCCC3)nc3ccccc32)cc1 [Clemizole hydrochloride]	inactive: 0.279
O=C(O)/C=C/c1ccc(O)c(O)c1 [Caffeic Acid]	inactive: 2.83
O=C(O)/C=C/c1ccc(O)c(O)c1 [Caffeic acid]	inactive: -0.616
N[C@@H](Cc1c[nH]c2ccc(O)cc12)C(=O)O [5-Hydroxy-L- tryptophan]	inactive: -0.0134
OCC1OC(n2cnc3c(NC4CCCCC4)ncnc32)C(O)C1O (stereo unspecified) [N6-Cyclohexyl adenosine]	inactive: 0.0224
O=C(O)COCCN1CCN(C(c2ccccc2)c2ccc(Cl)cc2)CC1 (stereo unspecified) [Cetirizine 2HCl]	inactive: -1.18
O=C(O)COCCN1CCN(C(c2ccccc2)c2ccc(Cl)cc2)CC1 (stereo unspecified) [Cetirizine dihydrochloride]	inactive: 0.294
N[C@@H]1CONC1=O [Cycloserine]	inactive: -0.423
N[C@@H]1CONC1=O [D-Cycloserine]	inactive: -0.259
CC(=O)O[C@]1(C(C)=O)CC[C@H]2[C@@H]3C=C(Cl)C4=CC(=O)[C@@H]5C[C@@H]5[C@]4(C)[C@H]3CC[C@@]21C [Cyproterone acetate]	inactive: -0.281
Clc1ccc(CO/N=C(\Cn2ccnc2)c2ccc(Cl)cc2Cl)c(Cl)c1 [Oxiconazole Nitrate]	inactive: -0.252
Clc1ccc(CO/N=C(\Cn2ccnc2)c2ccc(Cl)cc2Cl)c(Cl)c1 [Oxiconazole nitrate]	inactive: 0.0424
CCCc1c2oc(C(=O)O)cc(=O)c2cc2c(=O)cc(C(=O)O)n(CC)c12 [Nedocromil]	inactive: -1.05
CC(C)N1CCN(S(=O)(=O)c2ccc(NC(=O)c3ccc(C(F)(F)F)cc3[N+](=O)[O-])cc2)CC1	inactive: -0.8

SMILES	Z-score
O=C(O)c1ccc(-c2c[nH]c3ncc(-c4ccccc4)cc23)cc1C1CCCC1	inactive: -0.211
CN1CCc2cc(Cl)c(O)cc2[C@@H](c2ccccc2)C1	inactive: 0.37
COc1cc2c3cc1Oc1cc(ccc1O)C[C@@H]1c4c(cc(OC)c(O)c4Oc4ccc(cc4)C[C@@H]3N(C)CC2)CC[N+]1(C)C [(+)-Tubocurarine chloride]	inactive: -0.458
CC1=C(C(=O)O)N2C(=O)[C@@H](NC(=O)[C@H](N)C3=CCC=CC3)[C@H]2SC1 [Cephradine]	inactive: -0.276
CCc1c(C)[nH]c2c1C(=O)C(CN1CCOCC1)CC2 (stereo unspecified) [Molindone hydrochloride]	inactive: 0.804
CC(C)=CC[C@@H](O)C1=CC(=O)c2c(O)ccc(O)c2C1=O [Shikonin]	inactive: -0.46
NC(=O)C1=CN(C2OC(COP(=O)(O)OP(=O)(O)OC[C@H]3O[C@@H](n4cnc5c(N)ncnc54)C(OP(=O)(O)O)[C@H]3O)C(O)C2O)C=CC1 (stereo partly specified) [NADPH  tetrasodium]	inactive: 0.102
CC1=C(/C=C/C(C)=C/C=C/C(C)=C/C(=O)O)C(C)(C)CCC1 [Retinoic acid]	inactive: -0.354
CC1=C(/C=C/C(C)=C/C=C/C(C)=C/C(=O)O)C(C)(C)CCC1 [Tretinoin]	inactive: 0.395
CC1=C(/C=C/C(C)=C/C=C/C(C)=C/C(=O)O)C(C)(C)CCC1 [All trans retinoic acid]	inactive: -0.525
COc1ccc2ccc(=O)oc2c1CC=C(C)C [Osthole]	inactive: 1.42
O=c1cc(-c2ccccc2)oc2cc(O)ccc12 [7-Hydroxyflavone]	inactive: 0.528
CC(=O)Oc1ccccc1C(=O)O [Aspirin (Acetylsalicylic Acid)]	inactive: 0.54
CC(=O)Oc1ccccc1C(=O)O [Acetylsalicylic acid]	inactive: -0.081
CNS(=O)(=O)CCc1ccc2[nH]cc(C3CCN(C)CC3)c2c1 [Naratriptan hydrochloride]	inactive: 0.677
CNS(=O)(=O)CCc1ccc2[nH]cc(C3CCN(C)CC3)c2c1 [Naratriptan·HCl]	inactive: -0.398
O=C(NCC1(c2nc(-c3ccccc3)cs2)CCOCC1)c1cccc(-c2noc(C(F)(F)F)n2)c1	inactive: 0.324
CCCCCCCCCCCCCC[C@@H](O)[C@@H](O)[C@@H](N)CO [Phytosphingosine]	inactive: -0.542
O=C(O)C(=O)O.[NH-][C@@H]1CCCC[C@H]1[NH-].[Pt+2] [Oxaliplatin]	inactive: -0.158
Cc1ccc(NC(=O)c2ccc(CN3CCN(C)CC3)cc2)cc1Nc1nccc(-c2cccnc2)n1 [Imatinib Mesylate]	inactive: -0.42
Cc1ccc(NC(=O)c2ccc(CN3CCN(C)CC3)cc2)cc1Nc1nccc(-c2cccnc2)n1 [Imatinib mesylate]	inactive: -0.163
Cc1nn(-c2ccccc2)c(C)c1C=NN1CCN(Cc2ccccc2)CC1	inactive: -0.146

Pulled one by one from the entries so far, five records:
SMILES	Z-score
CC1=C(C(=O)O)N2C(=O)[C@@H](NC(=O)[C@H](N)C3=CCC=CC3)[C@H]2SC1 [Cephradine]	inactive: -0.276
Clc1ccc(CO/N=C(\Cn2ccnc2)c2ccc(Cl)cc2Cl)c(Cl)c1 [Oxiconazole Nitrate]	inactive: -0.252
Clc1ccc(CO/N=C(\Cn2ccnc2)c2ccc(Cl)cc2Cl)c(Cl)c1 [Oxiconazole nitrate]	inactive: 0.0424
Cc1ccc(NC(=O)c2ccc(CN3CCN(C)CC3)cc2)cc1Nc1nccc(-c2cccnc2)n1 [Imatinib mesylate]	inactive: -0.163
CC1=C(/C=C/C(C)=C/C=C/C(C)=C/C(=O)O)C(C)(C)CCC1 [Tretinoin]	inactive: 0.395

(listing goes on)

SMILES	Z-score
Oc1cc2c(c(Cl)c1O)CCNCC2c1ccccc1 (racemic) [(±)-6-Chloro-PB hydrobromide]	inactive: -0.708
Fc1ccc(CN(C2=NCCN2)c2c(Cl)cccc2Cl)cc1 [IMID-4F  hydrochloride]	inactive: 0.0674
CCOC(=O)O[C@]1(C(=O)OCCl)CC[C@H]2[C@@H]3CCC4=CC(=O)C=C[C@]4(C)[C@H]3[C@@H](O)C[C@@]21C [Loteprednol Etabonate]	inactive: 0.663
c1cnc(N2CCN(Cc3ccc4c(c3)OCO4)CC2)nc1 [Piribedil maleate salt]	inactive: -1.18
C[C@](N)(Cc1ccc(O)c(O)c1)C(=O)O [Methyldopa Sesquihydrate (L-Α-Methyl-Dopa Sesquihyrate)]	inactive: 0.0869
C[C@](N)(Cc1ccc(O)c(O)c1)C(=O)O [L-alpha-Methyl DOPA]	inactive: -0.0357
O=C(O)CNC(=O)C(CS)Cc1ccccc1 (racemic) [DL-Thiorphan]	inactive: -0.317
C[C@H]1c2cccc(O)c2C(=O)C2=C(O)[C@]3(O)C(=O)C(C(N)=O)=C(O)[C@@H](N(C)C)[C@@H]3[C@@H](O)[C@@H]21 [Doxycycline hydrochloride]	inactive: 0.969
C[C@H]1c2cccc(O)c2C(=O)C2=C(O)[C@]3(O)C(=O)C(C(N)=O)=C(O)[C@@H](N(C)C)[C@@H]3[C@@H](O)[C@@H]21 [Doxycycline Monohydrate]	inactive: 0.674
CC(C)NCC(O)COc1ccc(CCOCC2CC2)cc1 (stereo unspecified) [Betaxolol hydrochloride]	inactive: 2.98
CC(C)NCC(O)COc1ccc(CCOCC2CC2)cc1 (stereo unspecified) [Betaxolol·HCl]	active: -2.21
CC(=O)[C@@]1(O)CC[C@H]2[C@@H]3C[C@H](C)C4=CC(=O)C=C[C@]4(C)[C@@]3(F)[C@@H](O)C[C@@]21C [Fluorometholone]	inactive: 0.677
CCc1nc(N)nc(N)c1-c1ccc(Cl)cc1 [Pyrimethamine]	inactive: -0.241
CN1CC(=O)N2[C@H](c3ccc4c(c3)OCO4)c3[nH]c4ccccc4c3C[C@@H]2C1=O [Tadalafil]	inactive: -0.267
CC(NC(=O)c1ccccc1/N=C/c1c(O)ccc2ccccc12)c1ccccc1 (stereo unspecified) [Sirtinol]	inactive: -1.22
C[C@@H]1CC[C@H]2[C@](C)(CO)[C@@H](O)CC[C@]2(C)[C@@]12CC[C@@](CO)(CCO)O2 [Lagochiline]	inactive: -0.666
COc1cccc2oc(-c3ccccc3)cc(=O)c12 [5-Methoxyflavone]	inactive: 0.374
Nc1n[n+]([O-])c2ccccc2[n+]1[O-] [Tirapazamine]	inactive: -0.0348
CCCN1CCCC[C@H]1C(=O)Nc1c(C)cccc1C [Ropivacaine·HCl Monohydrate]	inactive: -1.08
Cc1ccc(S(=O)(=O)N[C@@H](Cc2ccccc2)C(=O)CCl)cc1 [N-p-Tosyl-L-phenylalanine chloromethyl ketone]	inactive: -1.06
Cn1c(=O)[nH]c2ncn(C)c2c1=O [1,7-Dimethylxanthine]	inactive: 0.79
C#CCN[C@@H]1CCc2ccccc21 [Rasagiline Mesylate]	inactive: -0.208

— the supplement of paper PMC8616043
